Values from PubChem BioAssay AID1224830 (NIAID, 2016).
This is an unselected part of about 18,000 deposited reagents. About 2,900 of them (16%) count as active. 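Calls are made per well; low scores hint the gene aids the LPS response, high scores that it dampens it.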 Repeated entries: four replicate wells of each siRNA pool.

- Aim: 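Regulators of TLR4 signalling towards TNF-alpha in macrophage-like cells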 (primary screen)
- Cell system: human THP-1 monocytic leukaemia cells, TNF dual-luciferase reporter clone, PMA-differentiated to macrophage-like cells
- Knock-down reagent: siRNA pool against human genes, 50 nM
- Duration: LPS for 4 h, given about 3 days after siRNA transfection
- Challenge: bacterial LPS (TLR4 ligand), 10 ng/ml
- Measured: 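Ratio of firefly to renilla light, scaled to the plate median and expressed as a robust z-score per replicate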
- Scale: TNF reporter robust z-score: higher = stronger TNF reporter response to LPS
- Call rule: 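a well is active when its z-score exceeds 2.8 or falls below -1.5; control wells carry no call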

gene	TNF reporter robust z-score	call
B4GAT1 (beta-1,4-glucuronyltransferase 1)	1.83	inactive
B4GAT1 (beta-1,4-glucuronyltransferase 1)	-0.15	inactive
B4GAT1 (beta-1,4-glucuronyltransferase 1)	-0.34	inactive
B4GAT1 (beta-1,4-glucuronyltransferase 1)	1.33	inactive
EDN3 (endothelin 3)	-0.25	inactive
EDN3 (endothelin 3)	0.78	inactive
EDN3 (endothelin 3)	-1.45	inactive
EDN3 (endothelin 3)	-0.78	inactive
CLLU1-AS1 (CLLU1 antisense RNA 1)	1.59	inactive
CLLU1-AS1 (CLLU1 antisense RNA 1)	-0.68	inactive
CLLU1-AS1 (CLLU1 antisense RNA 1)	-0.34	inactive
CLLU1-AS1 (CLLU1 antisense RNA 1)	0.56	inactive
KIR2DL5A	-1.75	active
KIR2DL5A	-1.47	inactive
KIR2DL5A	-1.86	active
KIR2DL5A	-1.56	active
SCO1 (synthesis of cytochrome C oxidase 1)	-0.83	inactive
SCO1 (synthesis of cytochrome C oxidase 1)	-0.23	inactive
SCO1 (synthesis of cytochrome C oxidase 1)	-0.17	inactive
SCO1 (synthesis of cytochrome C oxidase 1)	-0.55	inactive
SYNE2 (spectrin repeat containing nuclear envelope protein 2)	-0.77	inactive
SYNE2 (spectrin repeat containing nuclear envelope protein 2)	-1.03	inactive
SYNE2 (spectrin repeat containing nuclear envelope protein 2)	-1.1	inactive
SYNE2 (spectrin repeat containing nuclear envelope protein 2)	-0.87	inactive
LYG1 (lysozyme g1)	0.05	inactive
LYG1 (lysozyme g1)	0.67	inactive
LYG1 (lysozyme g1)	-0.07	inactive
LYG1 (lysozyme g1)	-0.11	inactive
KCTD1 (potassium channel tetramerization domain containing 1)	0.69	inactive
KCTD1 (potassium channel tetramerization domain containing 1)	1.84	inactive
KCTD1 (potassium channel tetramerization domain containing 1)	2.51	inactive
KCTD1 (potassium channel tetramerization domain containing 1)	2.9	active
ADAMTS7 (ADAM metallopeptidase with thrombospondin type 1 motif 7)	-0.07	inactive
ADAMTS7 (ADAM metallopeptidase with thrombospondin type 1 motif 7)	1.68	inactive
ADAMTS7 (ADAM metallopeptidase with thrombospondin type 1 motif 7)	-0.73	inactive
NRGN (neurogranin)	-0.74	inactive
NRGN (neurogranin)	1.54	inactive
NRGN (neurogranin)	0.58	inactive
NRGN (neurogranin)	0.02	inactive
TIPE3 (TNF alpha induced protein 8 like 3)	0.78	inactive
TIPE3 (TNF alpha induced protein 8 like 3)	0.83	inactive
TIPE3 (TNF alpha induced protein 8 like 3)	1.04	inactive
TIPE3 (TNF alpha induced protein 8 like 3)	2.08	inactive
OR1M1 (olfactory receptor family 1 subfamily M member 1)	1.05	inactive
OR1M1 (olfactory receptor family 1 subfamily M member 1)	0.85	inactive
OR1M1 (olfactory receptor family 1 subfamily M member 1)	0.87	inactive
OR1M1 (olfactory receptor family 1 subfamily M member 1)	1.24	inactive
ECD (ecdysoneless cell cycle regulator)	-1.38	inactive
ECD (ecdysoneless cell cycle regulator)	-0.59	inactive
ECD (ecdysoneless cell cycle regulator)	-0.55	inactive
ECD (ecdysoneless cell cycle regulator)	-0.65	inactive
BAG3 (BAG cochaperone 3)	-0.01	inactive
BAG3 (BAG cochaperone 3)	0.94	inactive
BAG3 (BAG cochaperone 3)	-0.67	inactive
BAG3 (BAG cochaperone 3)	-0.74	inactive
NIPSNAP2 (nipsnap homolog 2)	-0.97	inactive
NIPSNAP2 (nipsnap homolog 2)	-0.59	inactive
NIPSNAP2 (nipsnap homolog 2)	-0.3	inactive
NIPSNAP2 (nipsnap homolog 2)	-1.38	inactive

Next results:
gene	TNF reporter robust z-score	call
GABRA6 (gamma-aminobutyric acid type A receptor subunit alpha6)	-1	inactive
GABRA6 (gamma-aminobutyric acid type A receptor subunit alpha6)	-0.91	inactive
GABRA6 (gamma-aminobutyric acid type A receptor subunit alpha6)	-0.52	inactive
GABRA6 (gamma-aminobutyric acid type A receptor subunit alpha6)	-0.51	inactive
CHRM5 (cholinergic receptor muscarinic 5)	0.48	inactive
CHRM5 (cholinergic receptor muscarinic 5)	0.56	inactive
CHRM5 (cholinergic receptor muscarinic 5)	0.25	inactive
CHRM5 (cholinergic receptor muscarinic 5)	0.95	inactive
DCTN1 (dynactin subunit 1)	0.94	inactive
DCTN1 (dynactin subunit 1)	2.69	inactive
DCTN1 (dynactin subunit 1)	2.45	inactive
DCTN1 (dynactin subunit 1)	1.95	inactive
LRIG2 (leucine rich repeats and immunoglobulin like domains 2)	-0.52	inactive
LRIG2 (leucine rich repeats and immunoglobulin like domains 2)	-0.17	inactive
LRIG2 (leucine rich repeats and immunoglobulin like domains 2)	-0.21	inactive
LRIG2 (leucine rich repeats and immunoglobulin like domains 2)	-0.16	inactive
IMPG2 (interphotoreceptor matrix proteoglycan 2)	1.49	inactive
IMPG2 (interphotoreceptor matrix proteoglycan 2)	0.23	inactive
IMPG2 (interphotoreceptor matrix proteoglycan 2)	-0.04	inactive
IMPG2 (interphotoreceptor matrix proteoglycan 2)	0.24	inactive
HDAC3 (histone deacetylase 3)	-0.46	inactive
HDAC3 (histone deacetylase 3)	0.18	inactive
HDAC3 (histone deacetylase 3)	-0.55	inactive
ARL8B (ARF like GTPase 8B)	2.29	inactive
ARL8B (ARF like GTPase 8B)	2.74	inactive
ARL8B (ARF like GTPase 8B)	3.76	active
ARL8B (ARF like GTPase 8B)	4.62	active
SAC3D1 (SAC3 domain containing 1)	2.74	inactive
SAC3D1 (SAC3 domain containing 1)	4.6	active
SAC3D1 (SAC3 domain containing 1)	2.33	inactive
SAC3D1 (SAC3 domain containing 1)	3.36	active
PEX11A (peroxisomal biogenesis factor 11 alpha)	-0.99	inactive
PEX11A (peroxisomal biogenesis factor 11 alpha)	-0.71	inactive
PEX11A (peroxisomal biogenesis factor 11 alpha)	-0.59	inactive
PEX11A (peroxisomal biogenesis factor 11 alpha)	-0.24	inactive
COG4 (component of oligomeric golgi complex 4)	-0.62	inactive
COG4 (component of oligomeric golgi complex 4)	0.64	inactive
COG4 (component of oligomeric golgi complex 4)	-0.44	inactive
SYT15 (synaptotagmin 15)	-0.63	inactive
SYT15 (synaptotagmin 15)	0.32	inactive
SYT15 (synaptotagmin 15)	-0.62	inactive
SYT15 (synaptotagmin 15)	-0.14	inactive
EGFL8 (EGF like domain multiple 8)	-1.7	active
EGFL8 (EGF like domain multiple 8)	-1.31	inactive
EGFL8 (EGF like domain multiple 8)	-0.81	inactive
EGFL8 (EGF like domain multiple 8)	-0.77	inactive
PAX1 (paired box 1)	-0.21	inactive
PAX1 (paired box 1)	-0.7	inactive
PAX1 (paired box 1)	-0.27	inactive
PAX1 (paired box 1)	-0.91	inactive
EIF2AK2 (eukaryotic translation initiation factor 2 alpha kinase 2)	-0.57	inactive
EIF2AK2 (eukaryotic translation initiation factor 2 alpha kinase 2)	-1.49	inactive
EIF2AK2 (eukaryotic translation initiation factor 2 alpha kinase 2)	-0.72	inactive
EIF2AK2 (eukaryotic translation initiation factor 2 alpha kinase 2)	-1.01	inactive
